Test results published in PMC6814613.
Results are given in words; binding and its absence hold for the method and conditions named. Binding seen in cells or lysates may run through a third protein. Some binding calls cover weakened binding; strength is not graded here.

The chains behind the UniProt entries cited, without tags or fusion partners. Residues count along the entry.
UniProt P16234, residues 24-1089: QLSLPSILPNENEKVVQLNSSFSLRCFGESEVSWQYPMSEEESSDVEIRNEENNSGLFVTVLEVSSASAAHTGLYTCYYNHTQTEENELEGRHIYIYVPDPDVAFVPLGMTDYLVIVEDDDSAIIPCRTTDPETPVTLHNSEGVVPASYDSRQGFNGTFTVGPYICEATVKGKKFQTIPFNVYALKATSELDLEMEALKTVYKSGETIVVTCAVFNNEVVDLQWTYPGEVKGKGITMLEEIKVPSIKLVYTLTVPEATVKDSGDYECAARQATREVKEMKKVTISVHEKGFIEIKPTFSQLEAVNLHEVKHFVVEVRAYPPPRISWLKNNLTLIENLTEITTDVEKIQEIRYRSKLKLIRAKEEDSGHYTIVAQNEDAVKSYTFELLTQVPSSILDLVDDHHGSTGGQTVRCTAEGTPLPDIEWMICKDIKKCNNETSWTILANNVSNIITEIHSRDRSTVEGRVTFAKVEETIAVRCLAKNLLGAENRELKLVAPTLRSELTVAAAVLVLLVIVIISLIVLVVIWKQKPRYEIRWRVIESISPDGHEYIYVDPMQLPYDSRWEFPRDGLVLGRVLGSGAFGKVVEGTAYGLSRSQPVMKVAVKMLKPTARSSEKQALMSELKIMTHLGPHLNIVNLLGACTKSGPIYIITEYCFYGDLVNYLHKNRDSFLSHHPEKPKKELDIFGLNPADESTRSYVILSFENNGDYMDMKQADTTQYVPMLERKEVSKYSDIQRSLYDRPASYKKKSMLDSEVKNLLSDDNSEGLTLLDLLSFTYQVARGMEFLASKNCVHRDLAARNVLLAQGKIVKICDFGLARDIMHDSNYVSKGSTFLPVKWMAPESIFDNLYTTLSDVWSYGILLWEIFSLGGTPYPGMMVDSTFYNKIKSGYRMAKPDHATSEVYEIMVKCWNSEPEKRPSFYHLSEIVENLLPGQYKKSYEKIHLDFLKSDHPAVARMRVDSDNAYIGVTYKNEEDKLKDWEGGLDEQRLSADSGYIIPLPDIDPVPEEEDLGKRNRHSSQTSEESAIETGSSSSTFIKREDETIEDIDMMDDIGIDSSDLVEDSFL

What was measured:
[1] = target: T1, Ninjurin 2 (human (endogenous in HT-29, primary human colon cancer cells and human colon cancer tissue)) (UniProt Q9NZG7); test: co-IP; endogenous NINJ2 precipitated with anti-NINJ2 antibody plus protein IgA/G beads from 1000 μg lysate of HT-29 cells or primary human colon cancer cells (pri-Can-1); bound RTKs detected by Western blotting
T1 sequence: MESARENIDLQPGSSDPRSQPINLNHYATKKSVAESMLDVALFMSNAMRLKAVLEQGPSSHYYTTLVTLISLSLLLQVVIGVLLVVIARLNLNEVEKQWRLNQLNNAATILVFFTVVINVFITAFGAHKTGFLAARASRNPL

[2] = target: T1, Ninjurin 2 (human (endogenous in HT-29, primary human colon cancer cells and human colon cancer tissue)); test: co-IP; endogenous NINJ2 precipitated with anti-NINJ2 antibody plus protein IgA/G beads from fresh human colon cancer tissue lysates (patients 1-3); bound RTKs detected by Western blotting

epidermal growth factor receptor (from UniProt P00533 25-1210)
binding [1]: binds | binding [2]: binds

platelet-derived growth factor receptor α (from UniProt P16234 24-1089)
binding [1]: binds | binding [2]: binds

PDGFRβ (from UniProt P09619 33-1106) (receptor)
binding [1]: binds | binding [2]: binds
